PubChem BioAssay AID652259, Drosophila RNAi Screening Center | 2013

Screen: 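Identify new Wingless signalling regulators in fly cells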 (primary screen)
Cell system: Drosophila clone 8 imaginal disc epithelial cells
Reagents: long dsRNA against Drosophila genes
Challenge: pathway stimulated by co-transfected Wingless expression plasmid
Read-out: 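Firefly luciferase from a tcf-site Wingless reporter, measured alongside co-transfected Renilla luciferase that tracks transfection; pathway stimulated by a Wingless plasmid; the firefly-to-Renilla ratio is not deposited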
Direction: firefly reporter light: higher = more Wg reporter light, before normalisation; Renilla control light: higher = more transfected or surviving cells
Call rule: 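a knock-down is a candidate when at least two out of four statistical tests show it departing from its plate mean; one test alone signals a weak candidate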
Meaning of the calls: active = candidate regulator (raises or lowers reporter); inactive = not a candidate
In all, the deposit lists about 22,000 reagents; below is a random part of those with a known target gene and a result. Over the whole deposit, 233 (1.1%) are marked active. 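Light values are raw, unnormalised plate reads; the ratio scores behind the reporter calls were not deposited.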 Unmarked entries are inactive. Names joined by + are all predicted targets of the reagent. Not stated in the record: the amount of reagent, the time to read-out, the dose of the treatment.

gene knocked down | amplicon | firefly reporter light, replicate 1 | firefly reporter light, replicate 2 | Renilla control light, replicate 1 | Renilla control light, replicate 2
Cyp309a1 | DRSC00747 | 2234 | 5220 | 1280 | 2392
Fatp3 | DRSC04366 | 2246 | 5680 | 661 | 1827
CG10365 | DRSC14234 | 14688 | – | 12392 | –
RpS21 | DRSC00833 | 3748 | – | 1641 | –
CG15247 | DRSC17976 | 17627 | – | 9650 | –
Kpc1 | DRSC16107 | 8352 | – | 3942 | –
CG10317 | DRSC14229 | 21239 | – | 4717 | –
Pex3 | DRSC10731 | 4388 | – | 1335 | –
trv | DRSC13846 | 4176 | – | 1842 | –
trv | DRSC14559 | 9634 | – | 2193 | –
trv | DRSC14560 | 8940 | – | 3849 | –
trv | DRSC14561 | 12121 | – | 4871 | –
eIF5 | DRSC20165 | 4032 | 5408 | 1244 | 1849
Lsm12a | DRSC19702 | 23632 | – | 14829 | –
DNAlig1 | DRSC04518 | 10964 | – | 2986 | –
CG10804 | DRSC17764 | 4144 | 8554 | 1312 | 3221
CG43163 | DRSC10748 | 1622 | 10067 | 944 | 3426
CG12096 | DRSC21692 | 4.48e5 | 4.98e5 | 1.85e5 | 1.93e5
CG2187 | DRSC15425 | 17532 | – | 12586 | –
CG17919 | DRSC12571 | 8352 | – | 2818 | –
CG2926 | DRSC12321 | 3367 | – | 1524 | –
CG5504 | DRSC04701 | 10288 | – | 2840 | –
upd3 | DRSC19636 | 22984 | – | 10328 | –
upd3 | DRSC19968 | 24711 | – | 10621 | –
upd3 | DRSC22169 | 5.65e5 | 5.26e5 | 1.61e5 | 1.58e5

Next part (6 carried over from the part before).
gene knocked down | amplicon | firefly reporter light, replicate 1 | firefly reporter light, replicate 2 | Renilla control light, replicate 1 | Renilla control light, replicate 2
CG17919 | DRSC12571 | 8352 | – | 2818 | –
CG2926 | DRSC12321 | 3367 | – | 1524 | –
CG5504 | DRSC04701 | 10288 | – | 2840 | –
upd3 | DRSC19636 | 22984 | – | 10328 | –
upd3 | DRSC19968 | 24711 | – | 10621 | –
upd3 | DRSC22169 | 5.65e5 | 5.26e5 | 1.61e5 | 1.58e5
CG8701 | DRSC07237 | 6288 | – | 2592 | –
CG33981 + fab1 | DRSC07412 | 13336 | – | 5026 | –
Galphaq | DRSC07432 | 7316 | – | 2428 | –
CG1896 | DRSC15397 | 2219 | 4250 | 978 | 1435
Fdh | DRSC16670 | 12598 | – | 3269 | –
dpr5 | DRSC15766 | 7636 | – | 2565 | –
Uvrag | DRSC02932 | 14849 | – | 3963 | –
Ugt37A1 | DRSC02114 | 5157 | 5968 | 909 | 2652
Bka | DRSC02757 | 1533 | 5298 | 672 | 2898
inaD | DRSC04694 | 3316 | 7738 | 758 | 3085
Boh2 | DRSC02777 | 3233 | 6669 | 1013 | 2713
CG15083 | DRSC06514 | 8828 | – | 2628 | –
Atg8b | DRSC14501 | 14115 | – | 1353 | –
Lint-1 | DRSC19822 | 2192 | 5080 | 1031 | 2616
Oatp58Dc | DRSC04363 | 7926 | – | 2534 | –
Edem2 | DRSC02877 | 3562 | 11111 | 1878 | 5449
CG42331 | DRSC14633 | 4073 | – | 1175 | –
CG42331 | DRSC16126 | 26076 | – | 18961 | –
RpS5b | DRSC16173 | 10491 | – | 3057 | –
CG12998 | DRSC19518 | 23329 | – | 10123 | –
MYPT-75D | DRSC10743 | 5752 | – | 2021 | –
Pitslre | DRSC11874 | 9542 | – | 1868 | –
Mal-B1 | DRSC02416 | 2325 | 9819 | 1164 | 4848
CAH4 | DRSC22433 | 7.16e5 | 7.81e5 | 3.44e5 | 3.45e5
